These are yes or no findings as the source states them, for the method shown.
Target: T1, Irrelevant peptide (SPR control surface)
T1 sequence (peptide): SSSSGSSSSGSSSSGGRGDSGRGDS
Experiment: SPR; Biacore3000; His-tagged peptides on NTA-Ni SAM chips; 35 uL plugs of NM23 at 5 uL/minute; bovine NM23 in PBS, recombinant human NM23 in PBS with 15 mM imidazole; control peptide on a second flow channel; 1:1 Langmuir model; both purified

Row | Substance | binding
1 | NM23 purified from bovine liver | no binding
2 | Recombinant human NM23 | no binding
